# Experimental data published in PubChem BioAssay AID493014 (National Center for Advancing Translational Sciences (NCATS), 2011).
# Among all 340,000 compounds or so, about 170 (0.05%) were called active. The shares of active, inactive and inconclusive entries below differ from those in the screen. Calls come from the whole dose curve; as a rule, active = well fitted inhibition curve with a large enough effect in the signal ratio, with a control signal flat (not every such curve was filed as active); inconclusive = small, poorly fitted or top-dose-only effect, or effect the other way, or a change in a side signal; inactive = flat fitted curve, though single readings scatter; the % refers to the signal ratio. A potency beside an inconclusive call is a rough fit, not a confirmed value.
# Assay: qHTS Assay to Find Inhibitors of Chronic Active B-Cell Receptor Signaling;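 for activity change, negative = inhibition: plate controls were basal doxycycline-induced cells for no effect and cells given 10 µM MG132 for full effect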
# Settings: ABC-DLBCL IkBa-CBG/CBR reporter, luminescence ratio (green luciferase fused to IkBa over red control in TMD8 lymphoma cells), 4 h; activity change, negative = inhibition: at 46.1 µM (top of the series)
# How it was run: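 Cell line TMD8 (human ABC DLBCL), stably expressing tet-inducible CBG68-IkBa fusion and CBR; IMDM/0.5% FBS; cpd up to 46 uM; dox induction, 4 h, 37C/5% CO2; dual luminescence; green/red ratio; MG132 control.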
# Potency is the fitted concentration of half-maximal effect.
Structure (SMILES),Potency,"activity change, negative = inhibition"
COC(=O)C1=C(C)NC(C)=C(C(=O)OC)C1/C=C/c1ccccc1,"inconclusive: 16.4 µM [falling, partial curve]",
CN1C(=O)CSc2ccc(NC(=O)NCc3ccccc3)cc21,"inconclusive: 35.5 µM [falling, single point]",
Oc1c(Br)cc(Br)cc1CNc1ccc(F)cc1,,inconclusive: -19.2%
COc1cc(/C=C2\SC(=S)N(NC(=O)c3ccc(O)cc3)C2=O)ccc1O,,inactive: 0.505%
COc1cccc(C(=O)N(C)CC(=O)Nc2cccc3ccccc23)c1,,inconclusive: -4.25%
CCOC(=O)c1c(C)n(C)c2ccc(OCC(O)Cn3nc(C)cc3C)cc12 (stereo unspecified),,inconclusive: -18.3%
CC1Cc2nc(SCC(=O)N3CCN(c4ccccc4)CC3)n(CCc3ccccc3)c(=O)c2S1 (stereo unspecified),"inconclusive: 3.26 µM [rising, full curve]",
COc1ccc(OCc2nnc(SCC(=O)N3c4ccccc4Sc4ccc(Cl)cc43)o2)cc1,,inactive: 12.7%
CC1(C)Cc2c(C#N)c(N3CCOCC3)nc(Cc3ccccc3)c2CO1,,inactive: -4.2%
COc1ccc(-c2nnc(SCC(=O)Nc3ccc(Cl)cc3)n2C)cc1,,inactive: 0.469%
Cc1onc(-c2ccccc2)c1-c1nc2ccccc2c(=O)o1,"inconclusive: 2.59 µM [falling, full curve]",
CC1CCN(C(=O)Cn2cnc3c2c(=O)n(C)c(=O)n3C)c2ccccc2S1 (stereo unspecified),,inactive: -0.227%
Cc1cccc(-c2nnc3n2N=C(c2ccccc2Br)CS3)c1,,inconclusive: -1.93%
CCc1ccc2c(c1)[C@]1(C(=O)N2)[C@@H]2C(=O)N(Cc3ccccc3)C(=O)[C@@H]2[C@@H]2CCCN21,,inconclusive: -3.2%
O=C(NCc1ccc2c(c1)OCO2)c1ccc(Br)o1,,inconclusive: -1.77%
O=C(NCCc1ccco1)C(=O)NCC1OCCCN1S(=O)(=O)c1ccccc1 (stereo unspecified),,inconclusive: 9.91%
COc1cc2ccccc2cc1C(=O)Nc1ccccc1Cl,,inconclusive: -13.7%
COc1ccccc1-c1sc2cc3c(cc2c1-c1ccc(OCCN2CCCCC2)cc1)OCO3,,inactive: -1.6%
Cc1nn(Cc2ccccc2Cl)c(C)c1C(=O)N(C)CC(=O)Nc1cccc(F)c1,,inactive: 0.135%
CN1CC[n+]2cnc3ccccc3c21,,inconclusive: -0.611%
Clc1ccccc1CSc1nncn1NC/C=C/c1ccccc1,,inactive: -16.2%

# Exported bar-delimited: entries from further up.
Structure (SMILES) | Potency | activity change, negative = inhibition
COc1cccc(C(=O)N(C)CC(=O)Nc2cccc3ccccc23)c1 |  | inconclusive: -4.25%
CCOC(=O)c1c(C)n(C)c2ccc(OCC(O)Cn3nc(C)cc3C)cc12 (stereo unspecified) |  | inconclusive: -18.3%
CC1Cc2nc(SCC(=O)N3CCN(c4ccccc4)CC3)n(CCc3ccccc3)c(=O)c2S1 (stereo unspecified) | inconclusive: 3.26 µM [rising, full curve] | 
COc1ccc(OCc2nnc(SCC(=O)N3c4ccccc4Sc4ccc(Cl)cc43)o2)cc1 |  | inactive: 12.7%
CC1(C)Cc2c(C#N)c(N3CCOCC3)nc(Cc3ccccc3)c2CO1 |  | inactive: -4.2%
COc1ccc(-c2nnc(SCC(=O)Nc3ccc(Cl)cc3)n2C)cc1 |  | inactive: 0.469%

# (listing goes on)

Structure (SMILES),Potency,"activity change, negative = inhibition"
N#Cc1cc2c(nc1SCc1nc3ccccc3[nH]1)CCC2,"inconclusive: 2.82 µM [falling, single point]",
CCN(C(=O)COc1ccccc1)c1nnc(-c2cccnc2)s1,,inconclusive: -4.42%
COc1ccc(S(=O)(=O)n2c(CCN3CCOCC3)nc3ccccc32)cc1,,inconclusive: 10.9%
O=C(Nc1cccc(Cl)c1)Nc1ccc(Cl)cn1,,inconclusive: 22.7%
CCc1cccc(C)c1NC(=O)c1cc(=O)[nH]c2ccc(S(=O)(=O)N3CCOCC3)cc12,,inconclusive: 6%
Cn1ncc(Cl)c1C(=O)Nc1ccc2c(c1)CCC2,,inconclusive: 1.78%
Nc1ccc(Oc2ccc([N+](=O)[O-])cc2[N+](=O)[O-])cc1,,inactive: -4.38%
Cc1cc(C=O)c(C)n1-c1ccc(N2CCCCC2)c([N+](=O)[O-])c1,"inconclusive: 14.1 µM [falling, partial curve, poor fit]",
COCC1CCCCN1Cc1cn(-c2ccccc2)nc1-c1ccc2c(c1)OCO2 (stereo unspecified),,inconclusive: 9.02%
Cn1c2cc(B(O)O)sc2c2cnn(Cc3c(F)cccc3Cl)c(=O)c21,"inconclusive: 9.2 µM [falling, partial curve]",
CCOc1ccccc1/C=N/Nc1ccnc(=O)[nH]1,,inconclusive: -7.23%
Cc1c(C(=O)Nc2cccc(F)c2)cnn1-c1ccccc1,,inconclusive: -24.3%
O=C(NC(=S)NCc1nc2ccccc2[nH]1)c1ccccc1F,,inactive: 6.45%
CCOc1ccc(Nc2nc(N)nc(CN(C)C3CCCCC3)n2)cc1,,inconclusive: 0.805%
Cc1cc(NC(=O)CSCC(=O)N(c2cccc(Cl)c2)C(C(=O)NC2CCCCC2)c2ccc(O)c(O)c2)no1 (stereo unspecified),,inconclusive: -2.63%
COc1ccc(-c2ccc(=O)n(CC(=O)Nc3ccccc3C(F)(F)F)n2)cc1,,inconclusive: 2.94%
O=[N+]([O-])c1ccc(Nc2ccccc2)c2nonc12,,inactive: 9.48%
C=CCNC(=O)CSc1ncc2c(n1)-c1c(csc1SC)CC2,,inactive: 4.06%
COc1cccc(/C=N/Nc2ncnc(Cl)c2N)c1O,,inconclusive: 13.6%
Cc1cccc(NC(=O)[C@H](Cc2ccccc2)NC(=O)[C@@H]2Cc3ccccc3CN2)c1,"inconclusive: 8.91 µM [falling, partial curve, poor fit]",
CC1=CCC2C(=O)N(c3cccc(C(=O)Nc4ccc(Cl)cc4)c3)C(=O)C2C1 (stereo unspecified),,inconclusive: -14.2%

Structure (SMILES),Potency,"activity change, negative = inhibition"
O=C(Nc1ccc(Oc2cccnc2)cc1)C1CCN(Cc2cccc(Cl)c2)CC1,"inconclusive: 15.8 µM [falling, partial curve, poor fit]",
Cc1cc(=O)[nH]c(N=N/C(=N/Nc2ccccc2C)c2ccccc2)n1,,inconclusive: 4.18%
CCOC(=O)c1nnc(-c2ccc(C)cc2)nc1Oc1ccc(Cl)cc1Cl,"inconclusive: 31.6 µM [rising, single point]",
O=C(CSc1ncnc2c1nnn2-c1ccc(F)cc1)NCc1ccco1,"inconclusive: 20.6 µM [falling, partial curve]",
Cc1c(F)cccc1NS(=O)(=O)c1ccc2c(c1)c(=O)n(C)c(=O)n2C,,inconclusive: 10%
COc1ccc(S(=O)(=O)N2CCOCC2)cc1NC(=O)c1ccc(OCC(C)C)c(OC)c1,,inactive: -2.65%
Cc1ccc(S(=O)(=O)N2CCN(S(C)(=O)=O)C2c2ccccc2)cc1 (stereo unspecified),,inconclusive: 21.1%
S=C(Nc1ccccn1)NC1CCCC1,,inactive: -10.1%
Cc1ccc(C(=O)OCC(=O)NC2CCCC(C)C2C)cc1S(=O)(=O)N1CCCCC1 (stereo unspecified),,inconclusive: 4.14%
O=C(c1cc(-c2cccnc2)nc2ccccc12)N1CCCc2ccccc21,,inconclusive: 0.181%
O=C(Oc1cccc(-c2cnc3ccccc3n2)c1)c1ccco1,,inactive: 0%
COc1ccccc1CC(=O)Nc1ccc2c(c1)C(=O)NC2=O,,inconclusive: -11%
CNC(=S)Nc1cc(C)ccc1OC(F)F,,inconclusive: -198%
C[C@H]1C=C(C(=O)NCc2nc3ccccc3[nH]2)O[C@@H](OCc2ccc(CO)cc2)C1,,inconclusive: 378%
Cc1cccc(OCC(=O)NC(C)C(=O)N/N=C/c2c(OCc3ccccc3)ccc3ccccc23)c1 (stereo unspecified),"inconclusive: 0.184 µM [rising, full curve]",
O=C(Nc1ccc(N2CCOCC2)cc1)C1CCN(C(=O)OCc2ccccc2)CC1,,inactive: -0.837%
c1cc(CNc2ccc(N3CCOCC3)cc2)ccn1,,inactive: -16.4%
CCOC(=O)CSc1ncnc2c1cnn2-c1ccc(C)cc1,,inconclusive: -2.03%
COc1ccc(-c2noc(CCC(=O)NCCc3cccc(C)c3)n2)cc1,,inconclusive: 13.7%
COC(=O)c1ccccc1NC(=O)/C=C/c1cc(OC)c(OC)c(OC)c1,active: 16.4 µM,
Cc1ccc(-n2nc(C)c3c2OC(N)=C(C#N)C3c2ccccc2F)cc1 (stereo unspecified),"inconclusive: 1.78 µM [rising, full curve, poor fit]",

Structure (SMILES),Potency,"activity change, negative = inhibition"
CCCC(CCC(=O)Nc1ccc(S(N)(=O)=O)cc1)C(=O)O (stereo unspecified),"inconclusive: 29.1 µM [rising, single point]",
O=C(C[n+]1cccc(C(=O)N/N=C/c2ccc(Br)cc2)c1)c1ccccc1,"inconclusive: 32.6 µM [falling, partial curve, poor fit]",
Cc1nc(C)c(C(=O)Nc2ncc([N+](=O)[O-])s2)o1,"inconclusive: 31.6 µM [falling, partial curve]",
COc1ccccc1N1CCN(Cc2cc3c(cc2O)OCO3)CC1,,inactive: -6.94%
S=C(Nc1ccccc1)NC1CCN(Cc2ccccc2)CC1,,inactive: 0.607%
O=C(NCCc1ccccc1)c1ccc2nc(N3CCOCC3)sc2c1,"inconclusive: 15.8 µM [falling, single point]",
CCOc1ccc(OCC)c(NC(=O)C2CCCN2S(=O)(=O)c2cccc3cccnc23)c1 (stereo unspecified),"inconclusive: 29.1 µM [falling, single point]",
CCS(=O)(=O)c1ncc(Cl)c(C(=O)Nc2ccccc2OC)n1,,inactive: 9.19%
COC(=O)C(Oc1ccc2c(-c3ccc(OC)cc3)cc(=O)oc2c1)c1ccccc1 (stereo unspecified),"inconclusive: 23.1 µM [rising, partial curve, poor fit]",
Cc1ccnc(N(C(=O)c2cccs2)C(=O)c2cccs2)c1,,inconclusive: 5.95%
CCOc1ccccc1N(CC(=O)NCc1ccccc1)C(=O)CCC(=O)Nc1cc(C)ccn1,"inconclusive: 6.31 µM [falling, partial curve, poor fit]",
CCCCn1c(=O)n(CC(O)c2ccccc2)c(=O)c2c1ncn2C1CCCC1 (stereo unspecified),,inconclusive: 7.33%
CC(=O)Nc1ccc(C(=O)n2cnc3cc(C)c(C)cc32)cc1,,inactive: -9.05%
O=C(Nc1ccc(Oc2cccnc2)cc1)c1ccccc1Cl,"inconclusive: 29.1 µM [falling, single point]",
Cn1cccc1/C=N/N1CCN(Cc2ccccc2)CC1,,inconclusive: -55.7%
O=C(CSc1nc2ccccc2s1)NNC(=S)Nc1ccccc1,,inconclusive: 4.91%
Cc1c(CN2CCCC(CO)(Cc3cccc(Cl)c3)C2)cnn1C (stereo unspecified),"inconclusive: 3.98 µM [falling, full curve, poor fit]",
Clc1cc(Br)ccc1OCCCNCc1ccccc1,,inactive: -0.0216%
